Results of single-concentration screens

Amino acid sequences for entries named in this document (tags omitted). Residues count along the entry.
UniProt I6X8D2, whole entry: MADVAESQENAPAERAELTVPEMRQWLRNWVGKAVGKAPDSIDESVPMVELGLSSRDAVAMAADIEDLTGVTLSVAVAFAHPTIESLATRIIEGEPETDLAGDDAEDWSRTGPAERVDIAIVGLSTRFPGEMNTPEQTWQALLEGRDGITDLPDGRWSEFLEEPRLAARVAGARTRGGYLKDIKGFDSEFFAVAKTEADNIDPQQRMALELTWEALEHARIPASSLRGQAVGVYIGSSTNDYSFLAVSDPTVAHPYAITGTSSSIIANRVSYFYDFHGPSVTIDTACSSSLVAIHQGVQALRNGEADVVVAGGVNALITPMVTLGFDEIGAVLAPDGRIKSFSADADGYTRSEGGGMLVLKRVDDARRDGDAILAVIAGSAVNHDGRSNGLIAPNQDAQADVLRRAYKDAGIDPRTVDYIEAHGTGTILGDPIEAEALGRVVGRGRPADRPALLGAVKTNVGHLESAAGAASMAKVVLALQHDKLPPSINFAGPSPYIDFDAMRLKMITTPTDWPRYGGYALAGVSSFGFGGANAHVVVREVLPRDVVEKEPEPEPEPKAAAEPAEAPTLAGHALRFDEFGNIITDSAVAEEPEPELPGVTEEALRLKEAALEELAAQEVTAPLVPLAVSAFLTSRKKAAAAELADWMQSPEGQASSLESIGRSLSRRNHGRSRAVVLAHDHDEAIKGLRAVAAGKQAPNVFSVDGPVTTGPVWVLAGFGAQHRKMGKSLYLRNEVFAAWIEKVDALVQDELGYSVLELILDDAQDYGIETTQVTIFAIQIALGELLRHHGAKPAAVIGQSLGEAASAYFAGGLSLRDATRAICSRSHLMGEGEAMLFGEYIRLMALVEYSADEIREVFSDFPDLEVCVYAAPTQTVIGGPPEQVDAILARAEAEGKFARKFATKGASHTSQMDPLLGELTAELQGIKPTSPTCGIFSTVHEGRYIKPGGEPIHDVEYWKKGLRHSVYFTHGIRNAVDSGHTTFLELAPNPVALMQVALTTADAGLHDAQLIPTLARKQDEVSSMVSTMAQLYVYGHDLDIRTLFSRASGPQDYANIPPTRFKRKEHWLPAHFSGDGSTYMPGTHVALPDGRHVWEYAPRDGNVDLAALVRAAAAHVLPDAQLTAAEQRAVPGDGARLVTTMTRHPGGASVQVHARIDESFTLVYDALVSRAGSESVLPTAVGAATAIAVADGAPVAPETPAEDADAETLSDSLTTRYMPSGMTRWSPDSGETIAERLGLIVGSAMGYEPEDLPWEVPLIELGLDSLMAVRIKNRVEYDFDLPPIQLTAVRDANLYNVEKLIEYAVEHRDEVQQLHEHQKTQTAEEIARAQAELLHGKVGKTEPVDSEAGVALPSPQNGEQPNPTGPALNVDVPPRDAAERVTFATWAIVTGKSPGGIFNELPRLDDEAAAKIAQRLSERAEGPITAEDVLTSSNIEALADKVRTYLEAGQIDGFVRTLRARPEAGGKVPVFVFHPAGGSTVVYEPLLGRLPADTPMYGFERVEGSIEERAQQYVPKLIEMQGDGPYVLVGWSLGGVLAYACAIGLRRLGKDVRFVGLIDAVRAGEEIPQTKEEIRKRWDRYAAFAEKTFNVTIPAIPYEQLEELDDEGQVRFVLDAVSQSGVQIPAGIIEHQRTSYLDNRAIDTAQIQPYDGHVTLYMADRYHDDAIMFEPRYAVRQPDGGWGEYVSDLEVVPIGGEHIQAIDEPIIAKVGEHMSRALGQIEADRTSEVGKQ
UniProt Q4DA54, 1-478: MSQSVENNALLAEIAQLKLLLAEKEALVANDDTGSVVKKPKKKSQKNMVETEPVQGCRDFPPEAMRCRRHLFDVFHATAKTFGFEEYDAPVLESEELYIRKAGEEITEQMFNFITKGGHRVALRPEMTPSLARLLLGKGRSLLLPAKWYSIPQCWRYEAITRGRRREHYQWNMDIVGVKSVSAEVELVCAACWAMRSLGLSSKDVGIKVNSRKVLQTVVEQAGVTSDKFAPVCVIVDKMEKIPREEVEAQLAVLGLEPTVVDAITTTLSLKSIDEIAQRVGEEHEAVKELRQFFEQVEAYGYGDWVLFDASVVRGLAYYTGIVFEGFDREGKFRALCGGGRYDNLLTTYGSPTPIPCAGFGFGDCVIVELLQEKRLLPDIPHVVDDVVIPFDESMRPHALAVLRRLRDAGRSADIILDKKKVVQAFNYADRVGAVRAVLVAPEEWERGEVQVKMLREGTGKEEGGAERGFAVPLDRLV
UniProt A4I591, 1-473: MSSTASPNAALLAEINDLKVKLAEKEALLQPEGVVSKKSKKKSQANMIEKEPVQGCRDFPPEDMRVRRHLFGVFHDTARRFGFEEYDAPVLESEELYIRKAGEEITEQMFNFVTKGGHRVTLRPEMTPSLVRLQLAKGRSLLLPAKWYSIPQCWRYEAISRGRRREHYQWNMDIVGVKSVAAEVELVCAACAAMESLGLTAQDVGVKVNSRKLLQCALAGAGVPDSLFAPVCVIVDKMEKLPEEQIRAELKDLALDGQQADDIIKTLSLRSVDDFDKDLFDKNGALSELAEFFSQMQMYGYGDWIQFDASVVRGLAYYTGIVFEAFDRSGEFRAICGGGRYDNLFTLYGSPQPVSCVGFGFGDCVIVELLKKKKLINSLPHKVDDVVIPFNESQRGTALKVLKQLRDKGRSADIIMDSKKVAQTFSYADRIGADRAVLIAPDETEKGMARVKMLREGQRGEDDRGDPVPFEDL

A: 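Enzyme assay of the thioesterase domain of polyketide synthase 13; the read-out is not stated. Target: Polyketide synthase Pks13, Mycobacterium tuberculosis (UniProt I6X8D2). Concentration: 30 µM. The record gives no direction; the compounds picked for IC50 retests had high values, so higher reads as stronger inhibition. Size under these conditions: about 67,000 compounds, about 300 of them at 50% or above in at least one test.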
B: 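Enzyme assay of histidyl-tRNA synthetase; the read-out is not stated. Target: Histidine-tRNA ligase, Trypanosoma cruzi CL Brener (UniProt Q4DA54). Tested at 30 µM. Direction is inferred from retests: higher values go with stronger inhibition. Of about 69,000 compounds tested this way, about 31 (0.045%) reached 50% or more in at least one test.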
C: 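Histidine-tRNA ligase, Leishmania infantum (UniProt A4I591). Enzyme assay of histidyl-tRNA synthetase; the read-out is not stated. Compounds at 30 µM. Higher reads as stronger inhibition (inferred: compounds with an IC50 in retests scored well above the rest). The assay is labelled LdHisRS but filed under L. infantum. Size under these conditions: about 69,000 compounds, about 410 of them at 50% or above in at least one test.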

Results are given as percent effect. The record does not define 0% and 100%; most values in the screen are far below 50% and negative numbers occur (in some assays of this library far below -100). The compounds are a random part of those screened.

{"structure": "CO[C@@H]1CCN(Cc2ccccn2)[C@@H]2CN(Cc3ccco3)C[C@@H]21", "A": 12.61, "B": 0, "C": 25.64}
{"structure": "Cc1nc(CN2CCc3cnc(C(C)C)nc3C2)oc1C", "A": 2.955, "B": 7.975, "C": 17.28}
{"structure": "Cc1oc(-c2ccco2)nc1CC(=O)N1CCN(CC(C)O)CC1", "stereo": "stereo not shown", "A": -3.868, "B": 5.042, "C": 3.306}
{"structure": "Cc1cc(CN2CCCC(Cn3cncn3)C2)on1", "stereo": "stereo not shown", "A": -9.581, "B": 0.8547, "C": 6.838}
{"structure": "Cn1cc(N2CC3(CCN(Cc4cccs4)CC3)OCC2=O)cn1", "A": -6.192, "B": 3.306, "C": 3.81}
{"structure": "CN(C)c1nc2n(c(=O)n1)CCN2C(=O)Nc1ccc(Cl)c(Cl)c1", "A": -11.46, "B": -10.18, "C": -2.655}
{"structure": "CCc1cc(NCc2ccc(-n3cncn3)c(C)c2)n(C)n1", "B": -0.5618, "C": 25.64}
{"structure": "Cc1c[nH]nc1C1CCN(C(=O)C2CCCC2)C1", "stereo": "stereo not shown", "A": 3.976, "B": 7.143, "C": 5.674}
{"structure": "CC(NCc1ccccc1Cl)c1ccc2[nH]c(=O)[nH]c2c1", "stereo": "stereo not shown", "A": -14.14, "B": -0.5814, "C": -3.571}
{"structure": "COC(C)C(=O)N(CC(N)=O)Cc1cccc(Oc2ccccc2)c1", "stereo": "stereo not shown", "A": -26.06, "B": 4.433, "C": 22.37}
{"structure": "CN(C)c1ncc(CNS(=O)(=O)c2cccc3ccccc23)n1C", "A": -7.91, "B": 5.172, "C": 6.25}
{"structure": "Cc1cc(C)c2c(N3CCN(C(=O)N(C)C)CC3)ncnc2n1", "A": 9.063, "B": 13, "C": 22.45}
{"structure": "CC1c2ccc(F)cc2CCN1C(=O)c1[nH]c(=O)[nH]c(=O)c1N", "stereo": "stereo not shown", "A": -0.3135, "B": 10.1, "C": 20.21}
{"structure": "COCc1noc(CN2C[C@H](NS(C)(=O)=O)[C@@H](C3CC3)C2)n1", "A": -8.314, "B": -18.13, "C": 10.75}
{"structure": "O=C(Cn1cccnc1=O)NC(Cc1ccsc1)c1cccnc1", "stereo": "stereo not shown", "A": 10.52, "B": 1.064, "C": 7.292}
{"structure": "OCCCN1CCCC1c1cccc(Br)c1", "stereo": "stereo not shown", "A": -38.84, "B": 0, "C": 15.97}
{"structure": "CCN(CCn1cccn1)Cc1nc(-c2ccccc2F)oc1C", "A": -3.902, "B": 6.504, "C": 6.731}
{"structure": "Cc1ncsc1CCC(=O)NCc1csc(N(C)C)n1", "A": 25.17, "B": 7.447, "C": 16.42}
{"structure": "CC(C)N1CC[C@H]2[C@H](C[C@@H](Cn3cccn3)N2c2nccs2)C1", "A": 10.64, "B": -2.222, "C": 9.434}

For reference, 2 entries once more:

- COCc1noc(CN2C[C@H](NS(C)(=O)=O)[C@@H](C3CC3)C2)n1 : A: -8.314%; B: -18.13%; C: 10.75%
- Cc1cc(CN2CCCC(Cn3cncn3)C2)on1 (stereo not shown) : A: -9.581%; B: 0.8547%; C: 6.838%

Data taken from ChEMBL document CHEMBL3988442, “University of Dundee, Small-Polar-MMV Screening Library” (2021).